Laboratory results as given in paper PMC4365487.
These are yes or no findings as the source states them, for the method shown. Binding seen in cells or lysates may run through a third protein. Some results given as binding are weak or reduced against the parent protein; the word gives no strength. Sequences can lack the tags named with a protein. Each block holds one molecule with its values, some of them ahead of it.

Tests used:
[1] = target: T1, Flag-Dvl2 (Dishevelled 2) (UniProt Q60838); experiment: co-IP; lysates of COS7 cells co-expressing Shroom3L and Flag-Dvl2 in IP buffer (40 mM Tris pH 8.0, 5 mM EDTA, 10 mM EGTA, 100 mM NaCl, 0.5% Nonidet P-40); mouse anti-flag antibody overnight at 4°C, anti-mouse agarose beads; blot with anti-Shroom3 and anti-flag
T1 sequence: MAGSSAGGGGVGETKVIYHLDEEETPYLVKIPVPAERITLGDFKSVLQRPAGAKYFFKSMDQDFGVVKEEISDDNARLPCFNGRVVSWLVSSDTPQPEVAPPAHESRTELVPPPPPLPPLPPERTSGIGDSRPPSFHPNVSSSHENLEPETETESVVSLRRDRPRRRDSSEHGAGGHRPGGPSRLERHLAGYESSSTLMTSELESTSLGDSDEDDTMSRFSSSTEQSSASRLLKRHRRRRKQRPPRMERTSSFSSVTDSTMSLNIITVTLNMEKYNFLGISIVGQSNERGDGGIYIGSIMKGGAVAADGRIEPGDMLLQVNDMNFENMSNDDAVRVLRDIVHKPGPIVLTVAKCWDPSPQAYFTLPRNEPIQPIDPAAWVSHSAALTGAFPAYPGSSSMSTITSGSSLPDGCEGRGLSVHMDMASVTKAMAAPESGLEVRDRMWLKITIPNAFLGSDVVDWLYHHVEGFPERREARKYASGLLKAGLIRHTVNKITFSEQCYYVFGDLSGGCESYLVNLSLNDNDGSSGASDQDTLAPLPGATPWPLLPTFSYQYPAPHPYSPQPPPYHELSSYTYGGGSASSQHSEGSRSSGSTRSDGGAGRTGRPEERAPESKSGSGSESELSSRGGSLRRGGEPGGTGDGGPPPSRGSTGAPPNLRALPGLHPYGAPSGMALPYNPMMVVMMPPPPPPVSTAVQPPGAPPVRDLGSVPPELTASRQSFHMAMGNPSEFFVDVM

[2] = target: T2, GST-Shroom3 286-881 (mouse) (UniProt Q9QXN0); experiment: pull-down; GST-Shroom3 286-881 bound to beads incubated overnight with pre-cleared lysates of COS7 cells transiently expressing flag-Dvl2; washed in IP buffer; anti-Flag western blot of supernatant and pellet; only the target purified
T2 sequence: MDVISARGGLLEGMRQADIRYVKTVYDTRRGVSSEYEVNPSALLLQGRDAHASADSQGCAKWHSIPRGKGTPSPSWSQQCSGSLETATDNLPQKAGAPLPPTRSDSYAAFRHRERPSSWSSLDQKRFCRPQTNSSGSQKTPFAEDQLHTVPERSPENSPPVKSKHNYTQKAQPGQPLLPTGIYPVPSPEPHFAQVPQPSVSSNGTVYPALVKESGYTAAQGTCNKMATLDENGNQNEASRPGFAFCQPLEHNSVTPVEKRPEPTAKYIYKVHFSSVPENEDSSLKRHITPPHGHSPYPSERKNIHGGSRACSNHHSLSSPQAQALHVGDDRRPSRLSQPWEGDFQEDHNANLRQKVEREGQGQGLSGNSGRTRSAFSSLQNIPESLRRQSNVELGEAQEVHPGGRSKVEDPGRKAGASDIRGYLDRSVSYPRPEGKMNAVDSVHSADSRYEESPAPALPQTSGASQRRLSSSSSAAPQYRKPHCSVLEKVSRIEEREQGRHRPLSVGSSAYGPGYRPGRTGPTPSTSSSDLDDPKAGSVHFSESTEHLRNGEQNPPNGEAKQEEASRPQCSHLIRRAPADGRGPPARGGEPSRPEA

binding [1]: binds
Molecule: Shroom3L (full length Shroom3) (from UniProt Q9QXN0 1-1986)

binding [2]: binds
B1: Flag-Dvl2 (Dishevelled 2) (protein, UniProt Q60838 1-736)
chain: T1 sequence
